In the supplement of paper PMC8104966:
The other results are listed elsewhere or left out. This data set is noisy: repeats of one test often differ as much as different tests do.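 U2OS cells expressing ACE2 were combined with U2OS cells expressing full-length spike, and imaging quantified fusion as the fraction of nuclei displaying both cell types' fluorescent markers. Non-toxic compounds with a fusion z-score under -3, i.e., over three standard deviations below the plate's DMSO wells, are called inhibitory hits.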

These molecules were tested on U2OS ACE2 x SARS-CoV-2 spike co-culture (assay: cell-cell fusion (fraction fused) z-score vs plate DMSO control; higher = more fusion). Conditions: 30 µM; 5 h; toxicity class: non-toxic, passed QC.

How did the “cell-cell fusion (z-score)” value turn out when `CCN(CCO)CCCC(C)Nc1ccnc2cc(Cl)ccc12.O=S(=O)(O)O` (stereo unspecified) [Hydroxychloroquine sulfate] was run?
The value was inactive: 1.87.

Which “cell-cell fusion (z-score)” value does the source give for `CC12CCC3c4ccc(O)cc4CCC3C1C[C@H](O)[C@@H]2O` (stereo partly specified) here?
Its value is active: -3.79.

`O=C(O)CN(CCN(CC(=O)O)CC(=O)O)CCN(CC(=O)O)CC(=O)O` [Diethylenetriaminepentaacetic acid] was tested. Which “cell-cell fusion (z-score)” value did it give?
Its value is inactive: 2.55.

`O=C(O)CN(CCN(CC(=O)O)CC(=O)O)CCN(CC(=O)O)CC(=O)O` was tested. Which “cell-cell fusion (z-score)” value did it give?
Its value is inactive: -1.23.

How did the “cell-cell fusion (z-score)” value turn out when `CCC(CC)O[C@@H]1C=C(C(=O)O)C[C@H](N)[C@H]1NC(C)=O` [Oseltamivir acid] was run?
Its value is inactive: 0.691.

Which “cell-cell fusion (z-score)” value does the source give for `Cc1nccc2c1[nH]c1ccccc12` here?
The value was inactive: 0.631.

`CN(C)CCCN1c2ccccc2CCc2ccc(Cl)cc21.Cl` was tested. Which “cell-cell fusion (z-score)” value did it give?
Its value is active: -4.16.

How did the “cell-cell fusion (z-score)” value turn out when `CCN(CC)CCNC(=O)c1ccc(NC(C)=O)cc1.Cl` [N-Acetylprocainamide hydrochloride] was run?
Its value is inactive: 1.28.

Which “cell-cell fusion (z-score)” value does the source give for `CCN(CC)CCNC(=O)c1ccc(NC(C)=O)cc1.Cl` here?
Its value is inactive: 1.59.

How did the “cell-cell fusion (z-score)” value turn out when `CC(C)[N+](C)(CCOC(=O)C1c2ccccc2Oc2ccccc21)C(C)C.[Br-]` [Propantheline bromide] was run?
The value was inactive: 0.539.

How did the “cell-cell fusion (z-score)” value turn out when `COc1cc([C@@H]2c3cc4c(cc3[C@@H](O[C@@H]3O[C@@H]5CO[C@@H](C)O[C@H]5[C@H](O)[C@H]3O)[C@H]3COC(=O)[C@H]23)OCO4)cc(OC)c1O` [Etoposide] was run?
The value was inactive: 1.23.

For `CS(=O)(=O)O.N#CC1(c2ccc(NC(=O)c3cccnc3NCc3ccncc3)cc2)CCCC1` [Apatinib], which “cell-cell fusion (z-score)” value is on record?
Its value is inactive: -0.31.

`CCN(CC)C(=O)N1CCN(C)CC1.O=C(O)CC(O)(CC(=O)O)C(=O)O` [Diethylcarbamazine citrate] was tested. Which “cell-cell fusion (z-score)” value did it give?
The value was inactive: 3.02.

For `C[C@@H](OC[C@@]1(c2ccccc2)CC[C@]2(CCC(=O)N2)CN1)c1cc(C(F)(F)F)cc(C(F)(F)F)c1.Cl` [Rolapitant hydrochloride], which “cell-cell fusion (z-score)” value is on record?
Its value is active: -13.1.

With `C[C@H](NC(=O)Cc1cc(F)cc(F)c1)C(=O)N[C@@H]1C(=O)N(C)c2ccccc2-c2ccccc21` as the molecule, how does the “cell-cell fusion (z-score)” value read?
Its value is inactive: 1.86.

Which “cell-cell fusion (z-score)” value does the source give for `N#CC[C@@H](C1CCCC1)n1cc(-c2ncnc3[nH]ccc23)cn1` here?
The value was active: -3.16.

Which “cell-cell fusion (z-score)” value does the source give for `N#CC[C@@H](C1CCCC1)n1cc(-c2ncnc3[nH]ccc23)cn1` [S-Ruxolitinib] here?
The value was inactive: 1.6.

`CC(C)(C)NCC(O)c1cc(O)cc(O)c1.CC(C)(C)NCC(O)c1cc(O)cc(O)c1.O=S(=O)(O)O` (stereo unspecified) [Terbutaline Sulfate] was tested. Which “cell-cell fusion (z-score)” value did it give?
Its value is inactive: 3.55.

`CCC(C)n1ncn(-c2ccc(N3CCN(c4ccc(OC[C@H]5CO[C@](Cn6cncn6)(c6ccc(Cl)cc6Cl)O5)cc4)CC3)cc2)c1=O` (stereo partly specified) [Itraconazole] was tested. Which “cell-cell fusion (z-score)” value did it give?
Its value is inactive: 2.18.

`O=C1CCC(N2C(=O)c3ccccc3C2=O)C(=O)N1` (stereo unspecified) was tested. Which “cell-cell fusion (z-score)” value did it give?
The value was inactive: 2.39.

Which “cell-cell fusion (z-score)” value does the source give for `NC(=O)c1ncn([C@@H]2O[C@H](CO)[C@@H](O)[C@H]2O)n1` [Ribavirin] here?
Its value is inactive: 1.96.

`O=C([O-])CCCc1ccccc1.[Na+]` was tested. Which “cell-cell fusion (z-score)” value did it give?
Its value is inactive: 0.945.

`CC(C)N(CCC(=O)c1ccc2ccccc2c1)Cc1ccccc1.Cl` was tested. Which “cell-cell fusion (z-score)” value did it give?
The value was inactive: 1.44.

`CN1C(C(=O)Nc2ccccn2)=C(O)c2sc(Cl)cc2S1(=O)=O` was tested. Which “cell-cell fusion (z-score)” value did it give?
Its value is inactive: 2.01.

For `CC(CCC(=O)O)[C@H]1CCC2C3C[C@H](O)[C@@H]4C[C@H](O)CC[C@]4(C)C3CC[C@@]21C` (stereo partly drawn) [alpha-HYDROXYDEOXYCHOLIC ACID], which “cell-cell fusion (z-score)” value is on record?
Its value is inactive: 2.88.

Which “cell-cell fusion (z-score)” value does the source give for `CC(=O)O[C@@]12CO[C@@H]1C[C@H](O)[C@@]1(C)C(=O)[C@H](O)C3=C(C)[C@@H](OC(=O)[C@H](O)[C@@H](NC(=O)OC(C)(C)C)c4ccccc4)C[C@@](O)([C@@H](OC(=O)c4ccccc4)[C@H]21)C3(C)C` [Docetaxel] here?
The value was inactive: 0.72.

`Cl.Clc1cccc(Cl)c1NC1=NCCN1` [Clonidine hydrochloride] was tested. Which “cell-cell fusion (z-score)” value did it give?
Its value is inactive: 1.2.

How did the “cell-cell fusion (z-score)” value turn out when `C[C@H]1[C@H](OC(=O)CCC(=O)O)O[C@@H]2O[C@]3(C)CC[C@H]4[C@H](C)CC[C@@H]1[C@@]24OO3` was run?
Its value is inactive: 1.02.

For `Cl.NCCc1ccccc1`, which “cell-cell fusion (z-score)” value is on record?
The value was inactive: 1.2.

For `Cc1cn(-c2cc(NC(=O)c3ccc(C)c(Nc4nccc(-c5cccnc5)n4)c3)cc(C(F)(F)F)c2)cn1` [Nilotinib], which “cell-cell fusion (z-score)” value is on record?
The value was inactive: 5.42.

For `Cl.Cl.O=S(=O)(NCCNC/C=C/c1ccc(Br)cc1)c1cccc2cnccc12`, which “cell-cell fusion (z-score)” value is on record?
Its value is active: -4.17.

How did the “cell-cell fusion (z-score)” value turn out when `COc1cc2c(Nc3ccc(Br)cc3F)ncnc2cc1OCC1CCN(C)CC1` [Vandetanib (Zactima)] was run?
Its value is inactive: 1.28.

For `CC(=O)NS(=O)(=O)c1ccc(NC(=O)c2ccccc2C(=O)O)cc1`, which “cell-cell fusion (z-score)” value is on record?
Its value is inactive: 1.95.

With `Cn1cc(-c2ccc3ncc(Cc4ccc5ncccc5c4)n3n2)cn1` as the molecule, how does the “cell-cell fusion (z-score)” value read?
Its value is inactive: -0.513.

Which “cell-cell fusion (z-score)” value does the source give for `Nc1ncnc2c1ncn2[C@@H]1O[C@H](COP(=O)(O)CP(=O)(O)OP(=O)([O-])[O-])[C@H](O)C1O.[Li+].[Li+]` (stereo partly drawn) [alpha,beta-Methylene adenosine 5'-triphosphate dilithium] here?
Its value is inactive: 2.37.

For `O=C(O)COCCN1CCN([C@H](c2ccccc2)c2ccc(Cl)cc2)CC1` [Levocetirizine], which “cell-cell fusion (z-score)” value is on record?
Its value is inactive: 2.58.

Which “cell-cell fusion (z-score)” value does the source give for `CCOC(=O)N1c2ccc(C(F)(F)F)cc2[C@@H](N(Cc2cc(C(F)(F)F)cc(C(F)(F)F)c2)C(=O)OC)C[C@H]1CC` [Torcetrapib] here?
The value was inactive: 2.7.

Which “cell-cell fusion (z-score)” value does the source give for `OC(CN1CCC(Cc2ccc(F)cc2)CC1)c1ccc(Cl)cc1` (stereo unspecified) [Eliprodil] here?
The value was inactive: 4.46.

How did the “cell-cell fusion (z-score)” value turn out when `COCCc1ccc(OCC(O)CNC(C)C)cc1.O=C(O)C(O)C(O)C(=O)O` (stereo unspecified) was run?
The value was inactive: -0.379.

Which “cell-cell fusion (z-score)” value does the source give for `COc1cc(OC)c(C(C)=O)c(O)c1C` here?
The value was inactive: 1.39.

For `CC1(C)C2CC[C@]3(C)C(C(=O)C=C4[C@@H]5C[C@@](C)(C(=O)[O-])CC[C@]5(C)CC[C@]43C)[C@@]2(C)CC[C@@H]1OC(=O)CCC(=O)[O-].[Na+].[Na+]` (stereo partly specified), which “cell-cell fusion (z-score)” value is on record?
The value was inactive: 1.35.

Which “cell-cell fusion (z-score)” value does the source give for `C[C@H](CSC(=O)c1ccccc1)C(=O)N1C[C@@H](Sc2ccccc2)CC1C(=O)[O-].C[C@H](CSC(=O)c1ccccc1)C(=O)N1C[C@@H](Sc2ccccc2)CC1C(=O)[O-].[Ca+2]` (stereo partly specified) [Zofenopril calcium] here?
The value was inactive: 2.58.

With `COC1=CC(=O)C[C@@H](C)[C@]12Oc1c(Cl)c(OC)cc(OC)c1C2=O` as the molecule, how does the “cell-cell fusion (z-score)” value read?
The value was inactive: 0.7.

For `Cl.NCCCC(N)(C(=O)O)C(F)F` (racemic) [DL-alpha-Difluoromethylornithine hydrochloride], which “cell-cell fusion (z-score)” value is on record?
Its value is inactive: 4.46.

How did the “cell-cell fusion (z-score)” value turn out when `CCOc1nc2cccc(C(=O)OCc3oc(=O)oc3C)c2n1Cc1ccc(-c2ccccc2-c2nc(=O)o[nH]2)cc1` [Azilsartan Medoxomil] was run?
The value was inactive: 2.49.

For `NC(=O)CC[C@H](NC(=O)[C@@H](N)CO)C(=O)O`, which “cell-cell fusion (z-score)” value is on record?
Its value is inactive: 1.45.

`CC(O)(CS(=O)(=O)c1ccc(F)cc1)C(=O)Nc1ccc(C#N)c(C(F)(F)F)c1` (stereo unspecified) [Bicalutamide (Casodex)] was tested. Which “cell-cell fusion (z-score)” value did it give?
The value was inactive: 2.26.

For `C=CC[C@@H]1/C=C(\C)C[C@H](C)C[C@H](OC)[C@H]2O[C@@](O)(C(=O)C(=O)N3CCCC[C@H]3C(=O)O[C@H](/C(C)=C/C3CC[C@@H](O)[C@H](OC)C3)[C@H](C)[C@@H](O)CC1=O)[C@H](C)C[C@@H]2OC` (stereo partly specified), which “cell-cell fusion (z-score)” value is on record?
The value was active: -14.2.

Which “cell-cell fusion (z-score)” value does the source give for `CC1(C)S[C@@H]2[C@H](NC(=O)[C@H](N)c3ccccc3)C(=O)N2[C@H]1C(=O)O` [Ampicillin] here?
The value was inactive: 2.01.

For `COc1ccc(C(=O)NCc2cccnc2)cc1C(=O)NCc1cccnc1` [Picotamide], which “cell-cell fusion (z-score)” value is on record?
Its value is inactive: 1.88.

How did the “cell-cell fusion (z-score)” value turn out when `O=[N+]([O-])O[C@H]1CO[C@H]2[C@@H]1OC[C@H]2O[N+](=O)[O-]` [Isosorbide dinitrate] was run?
The value was inactive: 1.63.

How did the “cell-cell fusion (z-score)” value turn out when `S=c1[nH]c(-c2ccccc2)cn1-c1ccccc1` was run?
The value was inactive: -0.209.

`CC[C@@H]1C(=O)OC[C@@H]1Cc1cncn1C.O=[N+]([O-])O` was tested. Which “cell-cell fusion (z-score)” value did it give?
Its value is inactive: 1.03.

`CC[C@@H]1C(=O)OC[C@@H]1Cc1cncn1C.O=[N+]([O-])O` [Pilocarpine nitrate] was tested. Which “cell-cell fusion (z-score)” value did it give?
The value was inactive: 1.09.

For `COc1ccccc1OCC(O)CN1CCN(CC(=O)Nc2c(C)cccc2C)CC1.Cl.Cl` (stereo unspecified) [Ranolazine dihydrochloride], which “cell-cell fusion (z-score)” value is on record?
Its value is inactive: 1.58.

`CCCC(=O)[O][Na]` [Sodium butyrate] was tested. Which “cell-cell fusion (z-score)” value did it give?
Its value is inactive: 1.94.

With `C#CCN[C@H](C)Cc1ccccc1.Cl` [R-(-)-Desmethyldeprenyl hydrochloride] as the molecule, how does the “cell-cell fusion (z-score)” value read?
Its value is inactive: 2.35.

`CO[C@H]1C(=O)[C@]2(C)[C@@H](OC)C[C@H]3OC[C@@]3(OC(C)=O)[C@H]2[C@H](OC(=O)c2ccccc2)[C@]2(O)C[C@H](OC(=O)[C@H](O)[C@@H](NC(=O)OC(C)(C)C)c3ccccc3)C(C)=C1C2(C)C` [Cabazitaxel] was tested. Which “cell-cell fusion (z-score)” value did it give?
The value was inactive: -1.14.

How did the “cell-cell fusion (z-score)” value turn out when `CC[C@@H](CO)NC(=O)[C@@H]1C=C2c3cccc4c3c(cn4C)C[C@H]2N(C)C1.O=C(O)/C=C\C(=O)O` [Methysergide maleate] was run?
The value was inactive: 2.82.

For `COc1cc(N)c(Cl)cc1C(=O)NC[C@@H]1CCN2CCC[C@@H]12.Cl.O`, which “cell-cell fusion (z-score)” value is on record?
Its value is inactive: 3.7.

`CCCC(=O)O[C@]1(C(=O)CO)CC[C@H]2[C@@H]3CCC4=CC(=O)CC[C@]4(C)[C@H]3[C@@H](O)C[C@@]21C` [Hydrocortisone butyrate] was tested. Which “cell-cell fusion (z-score)” value did it give?
The value was inactive: 1.27.
